In PubChem BioAssay AID1347426 (Functional Genomics Laboratory (NCATS/FGL), 2020):
Hit rate of the full screen: of about 31,000 sequences, about 1,400 (4.5%) were called active.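 The calls were made as follows: active = median seed-adjusted z-score above 1 or below -1; inactive = the rest.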 Some of the results follow.

Test: Novel Modifiers of Survival Motor Neuron (SMN) Protein: Gene Identification via Genome-wide siRNA Screen;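 also: luminescence tracks full-length SMN protein made from the SMN2 reporter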
Settings: HEK293T SMN2-luciferase reporter, siRNA knockdown, 72 h; actives lie on both sides
How it was run: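 Luciferase signal, proportional to full-length SMN made from an SMN2 cDNA reporter in stable HEK293T cells, was read 72 h after siRNA reverse transfection. Values were expressed as MAD scores after non-targeting-control normalization and log10 conversion; seed analysis flagged off-targets.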

Sequence | median seed-adjusted z-score
GCCGCUUUCGGAAUAAGAUTT against DGKZ | inactive: 0
GCAAUUACCUGGUUGAUGUTT against ABAT | inactive: 0.0191
GAAAAACGGUGAACGAGUUTT against IGF2BP1 | inactive: -0.993
GGUUAAUCAUCUCAUUUUATT against ABHD5 | inactive: 0.131
GGCUCCAAAUCGCAUCGUATT against CADPS | inactive: 0.551
GUACAUGCUUUGUUAGGGATT against ISL1 | inactive: 0.138
CUUAUACGCUGGAUUCGUATT against NRK | inactive: 0.0687
CGAUAUAGAUCCUAAUAAUTT against GNPDA2 | inactive: -0.422
CUGCUAAGCCUGUAAGUGATT against UBE2U | inactive: -0.0545
GCAUGUCUCUGUCUUCUUUTT against THRB | inactive: 0.324
GCAUGUCUAUGCCUACUCUTT against CSF3R | inactive: -0.491
GAAUCUUGCUUUAACAUGATT against ANXA7 | inactive: 0.671
GGACCGAAACAGGAUGUCATT against GNA14 | inactive: 0.363
GGCGACUUUUUAUGAUACATT against CIDEC | inactive: 0.189
GGAAUGCAGUCGACCUACATT against GNPDA1 | inactive: 0.0252
CUUCAUUGCUUACCAGAAATT against CD99 | inactive: 0
GGCUUCAUCCAGAAAGGAATT against ZNF350 | inactive: 0.133
GGCUACAGAUGUGAAAGAUTT against PRDM14 | inactive: 0.316
CGACCUUUCUAUCCAGACUTT against ZFP90 | inactive: 0
UCUGUUUUGUAAUUUAAGATT against CLDN4 | inactive: -0.0241
CGAACCAUUUCAUCACGUATT against MARS2 | inactive: -0.00523
GAGAUCGGAUGGUACGUUUTT against CCBL2 | inactive: 0.184

Sequence | median seed-adjusted z-score
GGCUCUUACGGCAAGGUGATT against STK11 | inactive: 0.348
GGCUGUAAUAUAAAUCGAATT against CENPE | inactive: 0.298
GACAAUGACCAAAUCAAUATT against TGFBR3 | inactive: 0.285
GCUCCUCACUUACCCAGUATT against ZNF354C | inactive: 0.648
GGAUACCAGUGGAGGAUAATT against MPP7 | inactive: 0.163
GCUUCUGAAAUGAACCGAATT against DDHD2 | inactive: 0.447
GUCCUACGCCUGUUACUAUTT against LGMN | inactive: 0.391
GCAAAGUGCGCUCAUUUUATT against NEUROG3 | inactive: 0.212
GCACGGAGCUGAACGAUGATT against CDH23 | inactive: -0.918
AGCUUUUGUUGAGAGUUCATT against YY1 | active: 1.94
GUGACUAACAGUAACCCUATT against HLCS | inactive: 0.0646
GCACCAUUCUAACAAUGGATT against NANS | active: -1.54
CCAAUUCUCUACGUCUUUATT against FPR3 | inactive: -0.605
GGCACUCCGUUUCCCAAGATT against MOBKL2A | inactive: 0.268
GAAUGUCCAUAUUGUAGUATT against FANCL | inactive: -0.0823
GGUUGUUGCUGGAUGCUCUTT against RARRES3 | inactive: -0.033
CAAGUUUCACGUCAAGUUUTT against KCNT1 | inactive: 0.379
GCUGGAUUCCAUUAAAACATT against CA2 | inactive: 0.328
ACAUCGUCCACUUCCAGUATT against OAZ2 | inactive: 0.66
AGUCUGUUGGUGCUAAAAATT against TIMM8B | inactive: -0.853
GUGUCGUCGUAGAAAGAGATT against WEE1 | active: -4.05
GCUUACUUACAGAAAUCAATT against STX19 | inactive: 0.143

4 entries from above, tab-delimited.
Sequence	median seed-adjusted z-score
GCCGCUUUCGGAAUAAGAUTT against DGKZ	inactive: 0
GCAAUUACCUGGUUGAUGUTT against ABAT	inactive: 0.0191
GAAAAACGGUGAACGAGUUTT against IGF2BP1	inactive: -0.993
GGUUAAUCAUCUCAUUUUATT against ABHD5	inactive: 0.131

Next results follow:

Sequence | median seed-adjusted z-score
CGAUAUUUAUCCUUACCUATT against SLC9A2 | active: -1.02
UCAUCAUGGUCAUCGCUUUTT against RHO | inactive: -0.267
CCUUACUGUUUUUCACGAATT against APC | inactive: 0.154
CAUUCAUCUCAAUAAUUGATT against IL5RA | inactive: -0.357
CUGUUGGAAUGGACUAAAATT against MXD3 | inactive: 0.482
ACUUAUCCCAGAUUCCUGATT against BMP6 | inactive: 0.301
GUGUGAAACUAUUCGACCATT against PHTF2 | inactive: 0.389
CGGAUGAACAAGAAAGUUUTT against SGTB | inactive: -0.0165
GGUUUUGGAUUGCAUAGAATT against DGKB | inactive: 0.325
GUAAAUGAAUUUCGAAGAATT against PIK3CB | inactive: 0.0911
CGUUAUGGUUUUAAUACUATT against MLSTD2 | inactive: -0.294
GGAGAAGGGUCAAUGACGATT against SNX6 | inactive: 0
CUACAUCACCAGACAAUUUTT against TM7SF4 | inactive: 0.0246
GAAUCGACCUAGCAAGUGUTT against DDX52 | inactive: -0.2
CGGCACAUCUGGAGCUGAATT against DRD3 | inactive: 0.0447
CGAGAGACCCUCUAUCCAATT against ATP6V0D2 | inactive: -0.0346
GGGACAGGCUGCAAAGAAATT against AARS2 | inactive: -0.52
CCAUUCCGGUGAUACACGATT against BAG3 | inactive: -0.443
CCAGUAUACUUCUUAGAAATT against MCL1 | inactive: 0.225
CCGGGACAAUGAAUUCUCATT against KCNK13 | inactive: -0.0924
GGGCAGAACUGUACAAGGATT against NOL6 | inactive: -0.751
GGCUGUCCGCUUAAAUCCATT against IFIT1 | inactive: -0.489

Sequence | median seed-adjusted z-score
GCAAACCGGUGGAUAUUGATT against ATAD2B | inactive: 0.0192
CCACGUGACUUUCAACAAUTT against NR4A2 | inactive: -0.654
GGUGUGCGGUUCAUCUUCATT against ILVBL | inactive: 0.343
GUUUAUGUCUCAGCUCAGATT against NOL6 | inactive: -0.751
AGUACUUCCUGACGAUGGATT against CST6 | inactive: -0.237
CAGUUUGCUCUAUCAGUAATT against PSTPIP2 | inactive: 0.0136
CCAAUACCCUGCUACCUGATT against LTA4H | inactive: -0.742
GAACCAACUGGAUUAAAGATT against IYD | inactive: -0.572
GCUGACUUCCCUACACCUATT against CD80 | inactive: 0.553
GGAAAACGACAACACGAAATT against FREQ | inactive: -0.353
GAUCAAACUAGAACUCAUATT against COX7C | inactive: -0.461
CAUCCUCUUUAUACCGGAATT against GLYATL2 | inactive: -0.947
GGAUAGAAAGAAGCCUCUATT against ZDHHC1 | inactive: 0
CCAUGAUCGUCCAUAAGAATT against FADS2 | inactive: 0.0769
GCGUGAACGUGAAUCCGUUTT against UBR5 | inactive: 0.114
GGCUUUUUCUCCUCCGUGATT against GRB10 | inactive: -0.0341
GCAUCAGUUAUGUGGUUUATT against SLC25A24 | inactive: -0.0384
GCUGAUAUAUCGGCAGUAUTT against AP4S1 | inactive: -0.498
CAAACACUGGAGAUCAAAATT against GZMK | inactive: -0.303
AGAACUUGAUUCUCAAAUATT against GTPBP3 | inactive: -0.197
GCGUGUUGCCUUUCCAAAUTT against P2RY8 | inactive: -0.136
GGAGGCUUCUUUAUGAAUUTT against FXYD4 | inactive: -0.0447

An excerpt of these results, tab-delimited.
Sequence	median seed-adjusted z-score
GAACCAACUGGAUUAAAGATT against IYD	inactive: -0.572
GCUGACUUCCCUACACCUATT against CD80	inactive: 0.553
GGAAAACGACAACACGAAATT against FREQ	inactive: -0.353

Additional entries.

Sequence | median seed-adjusted z-score
CAGUGAACCGAGUCUUUAATT against PLXNA3 | inactive: 0.255
CAUGAAUCAAUGUCUGGUATT against PLAUR | inactive: -0.118
GGAACACUUUGGUCUUAGUTT against GALK2 | inactive: 0
CCUAUGGACAAGUCUAUAATT against MAP4K4 | inactive: 0.474
AGUCCACAAAUGUCACUGATT against CSRP3 | inactive: 0.15
UGUCCUGCCUUUUAACGUATT against CDKN2A | inactive: -0.0748
GGAAUUAUAUGACAAAGGATT against DNAJA1 | inactive: -0.00548
ACAUCGAUCCUUUCACCUATT against EPHB2 | inactive: -0.325
GGUCCUUGGAGGUCGAAAATT against PGR | inactive: -0.0249
AGAAAUAUGUAAUCGCUAUTT against HDHD1A | inactive: -0.937
CCUUUGCACCUAUCUCUGATT against NEK8 | inactive: -0.099
GCAUUUACGUGGAAAAUGATT against ITGA2B | inactive: 0.172
GGGUGCACCAGAAACAUUATT against VEZF1 | inactive: 0.974
CGGCUGCCUUCACCUCUUATT against SLC25A45 | inactive: -0.246
CCCUGUCCAUUUGAUGUUATT against SLC25A2 | inactive: 0.586
GCAUGCUGAUUGACUCCCATT against TMCO3 | inactive: -0.441
GAAUGAUCGUGAUCCUCGUTT against AHCTF1 | inactive: -0.501
CCCUCCAAAUAGCAAAUGUTT against PCOLCE2 | active: -1.15
CCUAUUUGGUGUUAACAUATT against DIRAS1 | inactive: -0.751
AGCCGAUGCUGCUGAGAAATT against ZFAND6 | inactive: -0.181
